# Article PMC12040169 (PLOS Biology, 2025)
# This is one part of the list.
# Test system: T1, CTL2-GFP (C. trachomatis L2/434/Bu, GFP-expressing)
# T1 construct: L2/434/Bu, GFP-expressing
# Design: species or system HeLa; Intracellular C. trachomatis growth in HeLa cells, bulk GFP fluorescence relative to DMSO
# Settings: bulk GFP, single well; 28.5 h, 10 µM; inhibitor
row,Compound,% of control remaining [%]
1,CC(=O)Nc1ccc(C(=O)CSc2nnc(-c3ccncc3)o2)cc1 [CBK266349],136.013
2,CCCc1ccc(S(=O)(=O)Nc2ccc(C(=O)OC)cc2)cc1 [CBK028682],119.926
3,O=S(=O)(Nc1cccc(-c2cnco2)c1)c1cc(C(F)(F)F)cc(C(F)(F)F)c1 [CBK067127],88.2028
4,Cc1cnccc1-c1c[nH]nc1-c1cccc(CNS(=O)(=O)c2ccc(F)c(F)c2)c1 [CBK285627],111.111
5,Cc1c(C(=O)Nc2ccc(S(=O)(=O)N3CCCCCC3)cc2)oc2ccc(Cl)cc12 [CBK267664],115.132
6,CCCCc1ccc(-c2cc3ncccc3nc2N)cc1 [CBK081198],126.187
7,Cc1nn(CC(=O)NC2CCCC2)c(=O)c2cc3sccc3n12 [CBK284023],88.2167
8,O=C(O)CCc1c(-c2ccccc2)cc2ccccn12 [CBK266308],73.1651
9,C=C(C)CN1CCN(Cc2cnn(C3CCCCC3)c2)CC1 [CBK282828],114.77
10,CC(NS(=O)(=O)c1cc(Cl)ccc1Cl)C(=O)Nc1ccccc1 (stereo not shown) [CBK267871],100.867
11,S=C(NCCc1ccc(Cl)cc1)NCc1ccco1 [CBK266812],167.674
12,Cc1ccc2cc(CN(Cc3ccco3)C(=O)c3cccs3)c(O)nc2c1 [CBK269274],109.831
13,O=C(c1ccccc1NS(=O)(=O)c1ccc(Br)cc1)N1CCOCC1 [CBK043340],117.606
14,CC(C)(C)C1CCc2onc(C(=O)NCCn3ccnc3)c2C1 (stereo not shown) [CBK281581],119.641
15,O=C(Nc1cccc(-c2nc3ccccc3s2)c1)c1ccc(S(=O)(=O)N2CCCC2)cc1 [CBK261787],132.89
16,Cc1nn(C)cc1-c1cncn1CCCC(C)(C)CO [CBK281492],128.922
17,Cc1csc(CC(C)n2cc(Cl)cn2)n1 (stereo not shown) [CBK304797],98.4251
18,O=C(Nc1cccc(C(F)(F)F)c1)c1nc[nH]n1 [CBK027341],108.523
19,CC(=O)c1c(C)[n+]([O-])c2cc(Cl)c(Cl)cc2[n+]1[O-] [CBK265017],100
20,Sc1nnc(-c2ccncc2)n1/N=C/c1cccnc1 [CBK265336],109.68
21,N[C@@H](Cc1c[nH]c2ccccc12)C(=O)N1CC[C@H]2NC(=O)[C@@H](Cc3ccccc3)NC(=O)C3(C/C=C/C[C@@H]2C1)CCOCC3 [CBK292202],112.769
22,Cc1cc2occ(CC(=O)NC3CCCN(C)C3)c2cc1C (stereo not shown) [CBK282611],103.526
23,COc1cc(CNC(=O)NC(=O)C2CCN(CCc3cccc(O)c3)CC2)cc(OC)c1OC [CBK034857],158.631
24,CS(=O)(=O)N(Cc1ccccc1)c1ccc(C(=O)Nc2ccccc2C(=O)O)cc1 [CBK264117],107.578
25,Cn1nnc(NC(=O)COc2ccc(C3CCCCC3)cc2)n1 [CBK266442],148.283
26,CNC(=O)c1ccc(-c2ccc3[nH]ccc3c2)nc1N(C)C [CBK106146],146.067
27,Cc1cc2c(cc3c(=O)n(CC(=O)N4CCCC4)nc(C)n32)s1 [CBK284065],158.852

row,Compound,% of control remaining [%]
1,O=C(CN1CCN(S(=O)(=O)N2CCCCCC2)CC1)Nc1cc(Cl)ccc1Cl [CBK269587],121.292
2,COCCN(CCOC)Cc1c(C)nc2c(C)c(C)ccc2c1O [CBK265031],145.473
3,CC(C)c1ccc(S(=O)(=O)N(c2ccccc2)C2CCNCC2)cc1 [CBK165088T],142.527
4,O=C(Nc1ccc(N2CCN(Cc3ccccc3)CC2)cc1)c1cncc(Br)c1 [CBK267093],197.366
5,CC(=O)c1cc(CN2CCCOC(Cn3cccn3)C2)cs1 (stereo not shown) [CBK307365],105.033
6,CN1CCN(C(=O)CNS(=O)(=O)c2ccc3ccccc3c2)CC1 [CBK042205],113.473
7,O=C(CSCc1cccc(Cl)c1)Nc1cccnc1 [CBK264114],84.9595
8,CC(=O)Oc1ccc(N2C(=O)CCSC2=S)cc1 [CBK005283],121.453
9,CCC1CCCCN1C(=O)c1cncc(Br)c1 (stereo not shown) [CBK076699],108.48
10,C=CCn1c(Cc2csc(NC(=O)c3cnc(C)cn3)n2)n[nH]c1=S [CBK295319],140.615
11,c1ccc2c(c1)CCN(Cc1ncc[nH]1)C2 [CBK126402],131.274
12,O=C(NCc1ccco1)C1(c2ccccc2)CCCC1 [CBK149539],104.254
13,O=S(=O)(c1cc(Cl)sc1Cl)N1CCCCC1CO (stereo not shown) [CBK051422],125.209
14,COc1ccc(CC(C(=O)Nc2ccc3nc[nH]c(=O)c3c2)c2ccccc2)cc1 (stereo not shown) [CBK285863],128.003
15,CC12CCC(C(=O)O)(c3nc4c(ccc5ncccc54)nc31)C2(C)C (stereo not shown) [CBK269470],131.884
16,O=C(NC1CCCC1)c1ccncc1 [CBK143916],54.3477
17,C[C@H](Nc1nccnc1-c1ccco1)c1ccccc1 [CBK037032],175.851
18,O=C(COc1ccccc1Cl)N/N=C/c1ccc(-c2ccccc2[N+](=O)[O-])o1 [CBK262782],94.0818
19,COc1ccc(Sc2nc3ccccc3nc2C(F)(F)F)cc1OC [CBK093779],159.327
20,COc1ccc(NC(=O)c2ccc(-c3cnc(Nc4ccc(N5CCOCC5)cc4)c4nccn34)cc2)cc1 [CBK091240],182.182
21,COc1ccc(NC(=O)CSCc2cc(O)[nH]n2)cc1 [CBK268417],101.082
22,Cc1cc(CNS(=O)(=O)N2CCCC2)c2[nH]c(C)c(C)c2c1 [CBK282772],119.542
23,Cc1noc(C)c1CC(=O)N1CCC(c2ccccc2)C1 (stereo not shown) [CBK281959],153.734
24,c1ccc(COc2nccnc2-c2ccccc2)cc1 [CBK106686],146.672
25,Cn1c(=O)c2c(nc(SCC(=O)CSc3nc4c(c(=O)n(C)c(=O)n4C)n3C)n2C)n(C)c1=O [CBK267692],148.798
26,CN(C)[C@@H]1CN(Cc2ccccn2)C[C@H]1c1cn(C)c2ccccc12 [CBK284582],93.0562
27,O=C(CCc1ccccc1)NNC(=O)C1CC1c1ccccc1 (stereo not shown) [CBK261292],98.4072

# 5 entries drawn at random from those above:
row,Compound,% of control remaining [%]
2,COCCN(CCOC)Cc1c(C)nc2c(C)c(C)ccc2c1O [CBK265031],145.473
8,CC(=O)Oc1ccc(N2C(=O)CCSC2=S)cc1 [CBK005283],121.453
24,c1ccc(COc2nccnc2-c2ccccc2)cc1 [CBK106686],146.672
8,O=C(O)CCc1c(-c2ccccc2)cc2ccccn12 [CBK266308],73.1651
9,C=C(C)CN1CCN(Cc2cnn(C3CCCCC3)c2)CC1 [CBK282828],114.77

# Next records.

row,Compound,% of control remaining [%]
1,COc1nccnc1OC1CCN(CCc2c[nH]c3ccccc23)CC1 [CBK084261],108.671
2,O=C1CC(c2ccccc2)c2c(n3ncnc3[nH]c2=O)N1 (stereo not shown) [CBK287912],128.494
3,COc1cc2c(cc1OC)C(c1ccc(C(=O)O)cc1)NCC2 (stereo not shown) [CBK286738],106.59
4,O=S(=O)(c1ccc(-c2ccccc2)cc1)N1CCCN(CCCO)CC1 [CBK063043],124.982
5,Cc1cccc(-c2ccc(CC3(C(N)=O)CCN(C(=O)COc4ccccc4)CC3)cc2)c1 [CBK285797],119.495
6,CC(C)(C)c1ccc(C(=O)N2CCC3(CC2)CC(=O)N(Cc2ccc(S(C)(=O)=O)cc2)C3=O)cc1 [CBK155018],99.6907
7,CC(C)[C@@H](CO)Nc1nc(-c2occc2C=O)cnc1N [CBK063733],223.275
8,CS(=O)(=O)c1ccc(-c2ccc(COC3CCN(C(=O)Cc4cccc(C(F)(F)F)c4)CC3)cn2)cc1 [CBK162231T],86.0671
9,NCCCN(Cc1ccco1)C1CCCC1 [CBK268856],98.2147
10,CCc1c(C(=O)NC(C)c2cccc(Cl)c2)cnc2cc(O)nn12 (stereo not shown) [CBK291243],126.142
11,Cc1ccc(OCc2nc(C)c(C(=O)N3CCCC(C)C3)s2)cc1 (stereo not shown) [CBK305356],101.675
12,CC(C)C(CNCc1cncnc1)c1ccnn1C (stereo not shown) [CBK304190],134.632
13,CN1CCC(Cc2nc(-c3ccc(Cl)s3)n(CCO)n2)CC1 [CBK307025],123.205
14,N#CCCCN1CCC(Oc2nccnc2OCc2cccnc2)CC1 [CBK083171],111.998
15,COc1ccc(N2C(=O)c3ccc(C(=O)OCC(=O)c4ccccc4Cl)cc3C2=O)c([N+](=O)[O-])c1 [CBK265514],123.332
16,O=C1COc2ccccc2C/C=C/CC2(CCN(C(=O)c3n[nH]c4ccccc34)CC2)CN1 [CBK292021],125.278
17,CCCc1[nH]nc(O)c1Cc1cc(F)ccc1Br [CBK075031],104.114
18,O=C(c1ccc(-c2nccnc2NCC2CC2)cc1)N1CCOCC1 [CBK036814],107.334
19,O=C1C=C(N2CCC(CCC3CCN(C4=CC(=O)CCC4)CC3)CC2)CCC1 [CBK007126],133.456
20,O=C(O)CSc1nc2ccccc2n1Cc1ccccc1 [CBK262411],107.532
21,O=[N+]([O-])c1ccc(CN2CCC(Oc3cncc(OCc4ccc(Cl)c(Cl)c4)n3)C2)cc1 (stereo not shown) [CBK084426],99.1941
22,COc1ccc2nc(-c3cccc(NC(=O)c4ccc(F)cc4)c3)cn2n1 [CBK287826],122.853
23,CC1CC(C)CN(C(=O)Cn2c(=O)n(C)c3ncccc32)C1 (stereo not shown) [CBK283794],151.466
24,COC1CCN(C2CCc3c(Cl)cc(Cl)cc32)CC1 (stereo not shown) [CBK304883],120.126
25,CN(C)CC1COc2ccccc2CN1C(=O)Cc1ccccc1F (stereo not shown) [CBK285080],121.795
